Structures can show the parent of a compound that is named as a salt. ± gives the standard deviation of the averaged measurements. This is one part of the list. These are raw signals, not scaled to a control.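 Ribosome-assembly readouts in HeLa cells were imaged via ENP1 staining, with or without export block, or inducible tagged ribosomal protein reporters. Machine learning classified per-cell signal location versus solvent (DMSO) controls. Hits surpassed the DMSO false-positive mean by five standard deviations and were visually confirmed; three biological replicates.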

These results are taken from the supplement of paper PMC12542422.

In this experiment the test system is HeLa K (ENP1 immunofluorescence, +LMB). Kind of experiment: fraction of cells with nucleolar or nucleolar/nucleoplasmic ENP1 signal (MainHitrate); higher = more cells with nucleolar/nuclear readout signal (for ENP1 -LMB: less RNAPI inhibition; for +LMB ENP1 and RP reporters: stronger nuclear/nucleolar retention, i.e. ribosome biogenesis defect). The conditions noted are these: concentration: 1 µM; treatment time: 6 h; ENP1 +LMB; leptomycin B: 20 nM, last 1.5 h.
In turn, `COc1ccc2[nH]c([S@@+]([O-])Cc3ncc(C)c(OC)c3C)nc2c1` [Esomeprazole sodium (Nexium)] had a fraction of 0.192 ± 0.29. Turning to `Nc1ncn([C@H]2C[C@H](O)[C@@H](CO)O2)c(=O)n1` [Decitabine], the fraction was determined as 0.0605 ± 0.061.

`CCCCN(CCCC)CCCOC(=O)c1ccc(N)cc1` [Butacaine] came in with a fraction of 0.0484 ± 0.051. The compound `CN/C(=N\CCSCc1nc[nH]c1C)NC#N` [Cimetidine (Tagamet)] showed a fraction of 0.096 ± 0.13.

Take `CCCCCCCCCCC[C@@H](C[C@@H]1OC(=O)[C@H]1CCCCCC)OC(=O)[C@H](CC(C)C)NC=O` [Orlistat (Alli, Xenical)]: the fraction amounted to 0.0952 ± 0.12. In turn, `NCC[C@H](O)C(=O)N[C@@H]1C[C@H](N)[C@@H](O[C@H]2O[C@H](CN)[C@@H](O)[C@H](O)[C@H]2O)[C@H](O)[C@H]1O[C@H]1O[C@H](CO)[C@@H](O)[C@H](N)[C@H]1O` [Amikacin hydrate] registered a fraction of 0.102 ± 0.15. Regarding `CC1(C)O[C@@H]2C[C@H]3[C@@H]4CCC5=CC(=O)C=C[C@]5(C)[C@@]4(F)[C@@H](O)C[C@]3(C)[C@]2(C(=O)CO)O1` [Triamcinolone Acetonide], the fraction was found to be 0.0948 ± 0.11.

`Cc1ccc(C(=O)C(C)CN2CCCCC2)cc1` (stereo unspecified) [Tolperisone HCl]: the fraction came to 0.107 ± 0.14. To `CCCOc1ccc2[nH]c(NC(=O)OC)nc2c1` [Oxibendazole] belongs 0.0874 ± 0.11; to `CCN(CC)C(=S)SSC(=S)N(CC)CC` [Disulfiram (Antabuse)], 0.149 ± 0.16. Under `CN(C)c1cc(NC(=O)CNC(C)(C)C)c(O)c2c1C[C@H]1C[C@H]3[C@H](N(C)C)C(O)=C(C(N)=O)C(=O)[C@@]3(O)C(O)=C1C2=O` [Tigecycline] stands 0.104 ± 0.088.
